PubChem BioAssay AID504791 | Drosophila RNAi Screening Center | 2011
Aim: 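Genes whose knock-down strengthens or weakens small-RNA reporter silencing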 (primary screen). Cell system: Drosophila S2-derived reporter cells. Reagents: long dsRNA against Drosophila genes, about 150-250 ng dsRNA per well (siRNA assay); about 80-120 ng (miRNA assay). Time to read-out: about 5 days (siRNA assay); about 4 days (miRNA assay). Challenge: copper sulfate induction of reporters: 25 µM (siRNA assay); 200 mM stated (miRNA assay), 1-2 days before reading. Read-out: 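Dual luciferase assay: Renilla to firefly signal ratio in each well, scaled to the mean ratio of its plate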. Rule for the call: 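First-pass picks had plate-scaled ratios over 1.5 for the siRNA assay, over 1.6 for the miRNA assay, or under 0.6; two distinct dsRNAs had to score alike on retest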.
The screen tested about 23,000 reagents; shown is a random part of those with a known target gene and a result. In the full data, 199 (0.86%) are marked active. 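Plate-scaled ratios behind the calls are not deposited; printed light signals are raw; many rows marked increased or decreased are still called inactive.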 Unmarked entries are inactive. Names joined by + are all predicted targets of the reagent. The record does not give: the direction of the score.

| target | amplicon | stable assay Renilla, run 1 (luminescence) | stable assay firefly, run 1 (luminescence) |
| --- | --- | --- | --- |
| Npc2g | DRSC14296 | 5743 | 4.09e5 |
| TwdlS | DRSC14737 | 6595 | 3.35e5 |
| Paris | DRSC00451 | 14795 | 5.34e5 |
| CG11600 | DRSC14332 | 6539 | 4.24e5 |
| CG4069 | DRSC10396 | 9923 | 4.11e5 |
| Adgf-E | DRSC05973 | 5919 | 3.03e5 |
| yip2 | DRSC03640 | 7573 | 3.47e5 |
| Gtpx | DRSC08221 | 8380 | 5.90e5 |
| Gtpx | DRSC22117 | 8954 | 6.06e5 |
| CG11911 | DRSC00331 | 12848 | 3.89e5 |
| ncm | DRSC02179 | 6023 | 1.28e6 |
| PGRP-LA | DRSC10327 | 5736 | 4.78e5 |
| PGRP-LA | DRSC10414 | 6503 | 4.50e5 |
| CG5050 | DRSC02807 | 7516 | 4.50e5 |
| atl | DRSC16089 | 7698 | 2.69e5 |
| mst | DRSC20582 | 6362 | 4.65e5 |
| CG2006 + Spase12 | DRSC14316 | 6222 | 5.75e5 |
| dpn | DRSC07605 | 6963 | 3.85e5 |
| CG32201 | DRSC22452 | 2576 | 3.06e5 |
| RpLP0-like | DRSC06424 | 8983 | 4.03e5 |
| qkr58E-3 | DRSC04711 | 6718 | 5.07e5 |
| CG2063 | DRSC06811 | 6643 | 3.51e5 |
| Tnks | DRSC14154 | 6915 | 4.04e5 |
| jar | DRSC16974 | 5979 | 2.75e5 |
| CG11779 | DRSC14384 | 10369 | 5.46e5 |
| Gr59a | DRSC21550 | 9787 | 4.86e5 |
| CheA87a | DRSC14839 | 7167 | 3.52e5 |
| HBS1 | DRSC08544 | 9583 | 5.07e5 |
| hbs | DRSC07627 | 6523 | 3.22e5 |
| CG17167 | DRSC20902 | 5583 | 4.35e5 |
| CG17167 | DRSC20903 | 5919 | 3.83e5 |
| CG17195 | DRSC15188 | 7551 | 3.25e5 |
| Cdk7 | DRSC18451 | 5099 | 3.58e5 |
| Cdk7 | DRSC23327 | 3523 | 2.75e5 |
